The list shows only some results of the screen, not a fair sample: it is rich in T/C values a quarter to a half above the control, in often repeated tests (any T/C) and in doses without a T/C. Further doses and runs are listed elsewhere. T/C gives the treated animals as a percentage of the vehicle group. Some doses have a count of surviving animals in place of a T/C: the source holds a T/C of zero for them, seemingly a mark for toxic or unscored doses. Some doses without a T/C left all or most animals alive at the check, yet need not have been tolerated: the source hardly ever lists a survival T/C far under the control, and the zero likely stands for such cases as well. Counts of survivors are from the toxicity check (mostly the fifth day) where no day follows; animals may have died later. Schedules are NCI's codes, read here as Q, the interval in days (D) or hours (H), X, the number of doses. Some entries hold several experiments; the values are given in rising order. Some schedule codes hold Z or #, which are not explained here. For survival time, this PubChem deposit counts one and a half times the control or more as active, and values a quarter to a half above the control carry no call in these data; other NCI protocols may use other cut-offs. Some T/C values are followed by the survivors on the day toxicity was checked, most often the fifth; without a count, all were alive then.
Test system: L1210 leukemia ip in BDF1 mice, survival T/C
Test: NCI In Vivo Anticancer Drug Screen. Data for tumor model L1210 Leukemia (intraperitoneal) in B6D2F1 (BDF1) mice
Conditions: higher T/C = longer survival
[1] = T/C endpoint: mean survival time, dose: 200.0 mg/kg/injection, schedule: Q01DX009 (ip), vehicle: saline with Tween-80
[2] = T/C endpoint: mean survival time, dose: 100.0 mg/kg/injection, schedule: Q01DX009 (ip), vehicle: Klucel (hydroxypropylcellulose) (HPC)
[3] = T/C endpoint: mean survival time, dose: 400.0 mg/kg/injection, schedule: Q01DX009 (ip), vehicle: Klucel (hydroxypropylcellulose) (HPC)

## CN(CCN(CCCl)c1ccc(N)cc1)c1ccc(N)cc1
T/C endpoint: mean survival time, dose: 100.0 mg/kg/injection, schedule: Q04DX003 (ip), vehicle: saline
  survivor count: 0 of 6
T/C endpoint: mean survival time, dose: 200.0 mg/kg/injection, schedule: Q04DX003 (ip), vehicle: saline
  survivor count: 0 of 6
T/C endpoint: mean survival time, dose: 400.0 mg/kg/injection, schedule: Q04DX003 (ip), vehicle: saline
  survivor count: 0 of 6

## O=C1CC(C(=O)O)C(C(=O)O)C1 (stereo not given)
T/C endpoint: mean survival time, dose: 400.0 mg/kg/injection, schedule: Q01DX001 (ip), vehicle: saline
  survivor count: 2 of 6

## OCCN1CCN(CCCN2c3ccccc3Sc3cccnc32)CC1
T/C endpoint: mean survival time, dose: 80.0 mg/kg/injection, schedule: Q01DX009 (ip), vehicle: saline
  T/C: 131 % of control [5 of 6 alive]
T/C endpoint: mean survival time, dose: 160.0 mg/kg/injection, schedule: Q01DX009 (ip), vehicle: saline
  survivor count: 0 of 6
T/C endpoint: median survival time, dose: 80.0 mg/kg/injection, schedule: Q01DX009 (ip), vehicle: saline
  T/C: 134 % of control [5 of 6 alive]
T/C endpoint: median survival time, dose: 160.0 mg/kg/injection, schedule: Q01DX009 (ip), vehicle: saline
  survivor count: 0 of 6

## CCN=C(N)C(C)SS(=O)(=O)O (stereo not given)
T/C endpoint: mean survival time, dose: 400.0 mg/kg/injection, schedule: Q04DX002 (ip), vehicle: saline
  survivor count: 0 of 3

## COc1coc(CO)cc1=O
[1]
  survivor count: 6 of 6

## O=C(c1ccccc1)c1c2ccccc2cc2ccccc12
[1]
  survivor count: 6 of 6

## CCCCCC(=O)N1CCCCC1CC (stereo not given)
T/C endpoint: mean survival time, dose: 400.0 mg/kg/injection, schedule: Q04DX002 (ip), vehicle: Klucel (hydroxypropylcellulose) (HPC)
  survivor count: 3 of 3

## CCNC(C1CCCCC1)C(C)OC(=O)c1ccc(N)cc1 (stereo not given)
T/C endpoint: mean survival time, dose: 150.0 mg/kg/injection, schedule: Q01DX001 (ip), vehicle: saline
  survivor count: 1 of 6
T/C endpoint: mean survival time, dose: 300.0 mg/kg/injection, schedule: Q01DX001 (ip), vehicle: saline
  survivor count: 0 of 6

## [CH3][Sn]([CH3])([CH3])[CH2][Sn]([CH3])([CH3])[CH3]
T/C endpoint: mean survival time, dose: 200.0 mg/kg/injection, schedule: Q01DX009 (ip), vehicle: saline
  survivor count: 0 of 3
T/C endpoint: mean survival time, dose: 400.0 mg/kg/injection, schedule: Q01DX009 (ip), vehicle: saline
  survivor count: 0 of 3

## O=C(CBr)c1cccc2c1ccc1ccccc12
T/C endpoint: mean survival time, dose: 12.5 mg/kg/injection, schedule: Q01DX009 (ip), vehicle: other
  survivor count: 3 of 3
T/C endpoint: mean survival time, dose: 25.0 mg/kg/injection, schedule: Q01DX009 (ip), vehicle: other
  survivor count: 3 of 3
T/C endpoint: mean survival time, dose: 50.0 mg/kg/injection, schedule: Q01DX005 (ip), vehicle: other
  survivor count: 0 of 3
T/C endpoint: mean survival time, dose: 100.0 mg/kg/injection, schedule: Q04DX002 (ip), vehicle: other
  survivor count: 0 of 3
T/C endpoint: mean survival time, dose: 200.0 mg/kg/injection, schedule: Q04DX002 (ip), vehicle: other
  survivor count: 0 of 3
T/C endpoint: mean survival time, dose: 400.0 mg/kg/injection, schedule: Q04DX002 (ip), vehicle: other
  survivor count: 0 of 3

## CC(C)(C)c1cccc(C(C)(C)C)c1OC(=O)NS(=O)(=O)c1ccccc1
T/C endpoint: mean survival time, dose: 100.0 mg/kg/injection, schedule: Q04DX003 (ip), vehicle: acetone
  survivor count: 6 of 6
T/C endpoint: mean survival time, dose: 170.0 mg/kg/injection, schedule: Q01DX009 (ip), vehicle: Klucel (hydroxypropylcellulose) (HPC)
  survivor count: 3 of 6
T/C endpoint: mean survival time, dose: 200.0 mg/kg/injection, schedule: Q04DX003 (ip), vehicle: acetone
  survivor count: 0 of 6
T/C endpoint: mean survival time, dose: 400.0 mg/kg/injection, schedule: Q04DX003 (ip), vehicle: acetone
  survivor count: 0 of 6

## CCCOC(=O)C#CC(=O)OCCC
T/C endpoint: mean survival time, dose: 1.56 mg/kg/injection, schedule: Q01DX009 (ip), vehicle: carboxymethylcellulose (CMC)
  survivor count: 3 of 3
T/C endpoint: mean survival time, dose: 12.5 mg/kg/injection, schedule: Q04DX002 (ip), vehicle: carboxymethylcellulose (CMC)
  survivor count: 5 of 6 and 3 of 3
T/C endpoint: mean survival time, dose: 25.0 mg/kg/injection, schedule: Q04DX002 (ip), vehicle: carboxymethylcellulose (CMC)
  survivor count: 0 of 3 and 1 of 6
T/C endpoint: mean survival time, dose: 50.0 mg/kg/injection, schedule: Q04DX002 (ip), vehicle: carboxymethylcellulose (CMC)
  survivor count: 0 of 3 and 0 of 6

## CC(O)C(N)C(=O)O (stereo not given)
[2]
  survivor count: 3 of 3
[3]
  survivor count: 3 of 3

## Cc1ccc([N+](=O)[O-])cc1NC(=O)Nc1cccc2c(O)cccc12
[3]
  survivor count: 6 of 6

## Nc1ncnc2c1cnn2C1OC(CO)C(O)C1O (stereo not given)
T/C endpoint: mean survival time, dose: 13.0 mg/kg/injection, schedule: Q01DX015 (ip), vehicle: carboxymethylcellulose (CMC)
  T/C: 138 % of control
T/C endpoint: mean survival time, dose: 20.0 mg/kg/injection, schedule: Q01DX015 (ip), vehicle: carboxymethylcellulose (CMC)
  T/C: 126 % of control
T/C endpoint: mean survival time, dose: 30.0 mg/kg/injection, schedule: Q01DX015 (ip), vehicle: carboxymethylcellulose (CMC)
  T/C: 127 % of control
T/C endpoint: mean survival time, dose: 45.0 mg/kg/injection, schedule: Q01DX015 (ip), vehicle: carboxymethylcellulose (CMC)
  T/C: 139 % of control
T/C endpoint: mean survival time, dose: 200.0 mg/kg/injection, schedule: Q01DX001 (ip), vehicle: carboxymethylcellulose (CMC)
  T/C: 130 % of control
T/C endpoint: mean survival time, dose: 400.0 mg/kg/injection, schedule: Q01DX001 (ip), vehicle: carboxymethylcellulose (CMC)
  T/C: 128 % of control

## Nc1nc(=S)c2[nH]c(N=Nc3ccc(S(=O)(=O)Nc4nccs4)cc3)nc2[nH]1
T/C endpoint: mean survival time, dose: 22.0 mg/kg/injection, schedule: Q01DX001 (ip), vehicle: Klucel (hydroxypropylcellulose) (HPC)
  T/C: 130 % of control
T/C endpoint: mean survival time, dose: 25.0 mg/kg/injection, schedule: Q01DX009 (ip), vehicle: Klucel (hydroxypropylcellulose) (HPC)
  survivor count: 6 of 6
T/C endpoint: mean survival time, dose: 50.0 mg/kg/injection, schedule: Q01DX001 (ip), vehicle: Klucel (hydroxypropylcellulose) (HPC)
  survivor count: 0 of 6
T/C endpoint: mean survival time, dose: 50.0 mg/kg/injection, schedule: Q01DX001 (ip), vehicle: saline with Tween-80
  T/C: 148 % of control
T/C endpoint: mean survival time, dose: 50.0 mg/kg/injection, schedule: Q01DX009 (ip), vehicle: Klucel (hydroxypropylcellulose) (HPC)
  survivor count: 5 of 6
T/C endpoint: mean survival time, dose: 100.0 mg/kg/injection, schedule: Q01DX001 (ip), vehicle: Klucel (hydroxypropylcellulose) (HPC)
  T/C: 140 % of control
T/C endpoint: mean survival time, dose: 100.0 mg/kg/injection, schedule: Q01DX001 (ip), vehicle: saline with Tween-80
  T/C: 149 % of control
T/C endpoint: mean survival time, dose: 200.0 mg/kg/injection, schedule: Q01DX001 (ip), vehicle: Klucel (hydroxypropylcellulose) (HPC)
  T/C: 134 and 142 % of control
T/C endpoint: mean survival time, dose: 200.0 mg/kg/injection, schedule: Q01DX001 (ip), vehicle: saline with Tween-80
  T/C: 134 % of control [5 of 6 alive]
T/C endpoint: mean survival time, dose: 400.0 mg/kg/injection, schedule: Q01DX001 (ip), vehicle: Klucel (hydroxypropylcellulose) (HPC)
  survivor count: 1 of 6

## CCCCCC#CCCCCl
T/C endpoint: mean survival time, dose: 200.0 mg/kg/injection, schedule: Q01DX009 (ip), vehicle: carboxymethylcellulose (CMC)
  survivor count: 3 of 3
T/C endpoint: mean survival time, dose: 400.0 mg/kg/injection, schedule: Q04DX002 (ip), vehicle: carboxymethylcellulose (CMC)
  survivor count: 1 of 3 and 6 of 6

## C/C(CCO)=N/N=C(N)N
T/C endpoint: mean survival time, dose: 60.0 mg/kg/injection, schedule: Q01DX Z (ip), vehicle: methylcellulose (MC)
  survivor count: 4 of 6
T/C endpoint: mean survival time, dose: 120.0 mg/kg/injection, schedule: Q01DX Z (ip), vehicle: methylcellulose (MC)
  survivor count: 1 of 6
T/C endpoint: mean survival time, dose: 120.0 mg/kg/injection, schedule: Q01DX Z (oral), vehicle: methylcellulose (MC)
  survivor count: 4 of 6
T/C endpoint: mean survival time, dose: 240.0 mg/kg/injection, schedule: Q01DX Z (oral), vehicle: methylcellulose (MC)
  survivor count: 4 of 6

## COc1ccc(C[C@H](N)C(=O)NC2C(CO)OC(n3cnc4c(N(C)C)ncnc43)C2O)cc1 (stereo not given in full)
T/C endpoint: median survival time, dose: 400.0 mg/kg/injection, schedule: Q04DX003 (ip), vehicle: saline
  survivor count: 5 of 8

## O=C(Nc1ccc(C2=NCCN2)cc1)c1ccc2cc(C(=O)Nc3ccc(C4=NCCN4)cc3)ccc2c1
T/C endpoint: mean survival time, dose: 15.0 mg/kg/injection, schedule: Q01DX Z (ip), vehicle: carboxymethylcellulose (CMC)
  T/C: 125 % of control
T/C endpoint: mean survival time, dose: 30.0 mg/kg/injection, schedule: Q01DX Z (ip), vehicle: carboxymethylcellulose (CMC)
  T/C: 127 and 135 % of control
T/C endpoint: mean survival time, dose: 60.0 mg/kg/injection, schedule: Q01DX Z (ip), vehicle: carboxymethylcellulose (CMC)
  T/C: 125 and 135 % of control
T/C endpoint: mean survival time, dose: 120.0 mg/kg/injection, schedule: Q01DX Z (ip), vehicle: carboxymethylcellulose (CMC)
  T/C: 141 % of control

## CCOc1ccccc1/C=C(\C#N)c1cccc(Cl)c1
T/C endpoint: mean survival time, dose: 400.0 mg/kg/injection, schedule: Q01DX009 (ip), vehicle: other
  survivor count: 6 of 6

## CCN(CC)CCN(CC)C(=S)Nc1ccccc1
[2]
  survivor count: 0 of 6
T/C endpoint: mean survival time, dose: 200.0 mg/kg/injection, schedule: Q01DX009 (ip), vehicle: Klucel (hydroxypropylcellulose) (HPC)
  survivor count: 1 of 6
[3]
  survivor count: 0 of 6

## CC1C2C=CC(C2)C1C(=O)O (stereo not given)
T/C endpoint: mean survival time, dose: 400.0 mg/kg/injection, schedule: Q04DX003 (ip), vehicle: saline with Tween-80
  survivor count: 6 of 6

— PubChem BioAssay AID248 (DTP/NCI, 2004)
